From ChEMBL document CHEMBL3988442, “University of Dundee, Small-Polar-MMV Screening Library” (2021).

Values are the deposited “Percent Effect”, in %. How 0% and 100% were set is not recorded. Most values in the screen are low, and negative values occur. Compounds were drawn at random from those tested, without regard to their results. Two or more numbers in one place are separate tests of the same structure; such repeats can differ widely.

Mtb cholesterol medium: 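Growth of Mycobacterium tuberculosis over 4 days (cholesterol / DPPC medium with tyloxapol); the read-out is not stated. Concentration: 50 µM. Higher reads as more growth inhibition (inferred: compounds with an IC50 in retests scored well above the rest). About 69,000 compounds were tested under these conditions; 0.54% (about 370) showed 50% or more at least once.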
Mtb glucose medium: 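Whole-cell growth test on Mycobacterium tuberculosis, read after 3 days in glucose-containing 7H9 medium; the read-out is not stated. Compounds at 50 µM. The record gives no direction; compounds that gave an IC50 in retests scored well above the rest, so higher reads as more growth inhibition. Of about 69,000 compounds tested this way, about 760 (1.1%) reached 50% or more in at least one test.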

Result for Cn1cnnc1S(=O)(=O)C1CCN(S(=O)(=O)c2ccc(Cl)s2)CC1 was Mtb cholesterol medium: -16.73%; Mtb glucose medium: -30.02%. With CCN1CCC(=O)N(C)Cc2cc(F)ccc21 the screen gave Mtb cholesterol medium: 11.33%; Mtb glucose medium: 4.532%. CC(C)[C@H]1COC(=O)N1CC(=O)N(C)CCCn1cccn1 gave Mtb cholesterol medium: 0.9291% and -30.93%; Mtb glucose medium: -3.77% and 4.762%. O=C(CCc1ccccc1Cl)NS(=O)(=O)c1ccc2c(c1)OCCO2 gave Mtb cholesterol medium: 1.446%; Mtb glucose medium: -17.94%. O=C(O)C(F)(F)F.O=C(O)C(F)(F)F.O=C(c1cccnc1)N1CCn2nnc(COc3cccnc3)c2C1 read Mtb cholesterol medium: -20.89%; Mtb glucose medium: -25.72%. For CS(=O)(=O)N[C@@H]1CCO[C@]2(CCN(C(=O)c3cscn3)C2)C1 the result was Mtb cholesterol medium: -15.06% and 9.889%; Mtb glucose medium: -18.06%. With Cn1cnc(S(=O)(=O)N2CCOCC2)c1Cl the screen gave Mtb cholesterol medium: -4.128%; Mtb glucose medium: 3.429% and 2.176%.

With O=C(O)C(F)(F)F.[H][C@@]12CN(C(=O)c3ccccc3)CCO[C@]1([H])CN(c1cnccn1)C2 the screen gave Mtb cholesterol medium: -2.184%; Mtb glucose medium: -3.768% and 3.606%. Result for CC(NC(=O)NCCn1ccnc1)c1ccc2c(c1)CCC(=O)N2 (centres undefined) was Mtb cholesterol medium: -2.103%; Mtb glucose medium: -3.456%. CCS(=O)(=O)c1ncc(CN(C)Cc2ccccn2)n1CCOC read Mtb cholesterol medium: 1.157%; Mtb glucose medium: 4.87%. For CC(c1nc(C(C)(C)C)no1)S(=O)(=O)CC(=O)N(C)C (centres undefined) the result was Mtb cholesterol medium: -23.58%; Mtb glucose medium: -10.37%. Result for Cc1ccc(N2CC3(COCCN(Cc4nccs4)C3)OCC2=O)s1.O=C(O)C(F)(F)F (centres undefined) was Mtb cholesterol medium: -15.19%; Mtb glucose medium: -4.775%. COCCC(=O)N1CCC2(CN(Cc3cccc(Cl)c3)C2)C1 read Mtb cholesterol medium: -17.02% and -57.28%; Mtb glucose medium: -48.38%. Cc1c(CN(C)C(=O)c2ccnn2C)cnn1C gave Mtb cholesterol medium: -12.78%; Mtb glucose medium: -39.95%.

Result for NC1(CNC(=O)c2cc3ccccc3[nH]2)CCCC1 was Mtb cholesterol medium: -25.46%; Mtb glucose medium: -12.9%. Cn1cccc1C(=O)N1CCCC2(CCN(CCN3CCCC3)C2=O)C1.O=C(O)C(F)(F)F (centres undefined) gave Mtb cholesterol medium: -16.28%; Mtb glucose medium: -37.9%. With Cc1occc1C(=O)N1CCC2(CC1)C(c1cnn(C)c1)CC(=O)N2C (centres undefined) the screen gave Mtb cholesterol medium: -18.68%; Mtb glucose medium: -19.85%. Result for Cc1nnc2n1CCN(C(=O)C1CCC(n3cccc3)CC1)C2 (centres undefined) was Mtb cholesterol medium: 0.03803%; Mtb glucose medium: -37.11%. For COc1ccc(C(=O)NCC(c2cccn2C)N2CCN(C)CC2)cc1 (centres undefined) the result was Mtb cholesterol medium: 4.434%; Mtb glucose medium: 25.12%. For O=C(Cc1cccs1)NS(=O)(=O)c1cccc2cnccc12 the result was Mtb cholesterol medium: -12.2%; Mtb glucose medium: -14.81%. For CC(CO)(NC(=O)Nc1nnc(C(F)F)s1)C1CC1 (centres undefined) the result was Mtb cholesterol medium: -21.28%; Mtb glucose medium: -22.89%.

For Cc1nn(C)cc1S(=O)(=O)NCC(c1ccccc1)N1CCCCCC1.Cl (centres undefined) the result was Mtb cholesterol medium: 33.41% and 89.95%; Mtb glucose medium: 28.12%. COCC(=O)N1CCC2(CC1)NC(=O)c1ccccc12.Cl read Mtb cholesterol medium: -15.92%; Mtb glucose medium: -9.371% and -35.62%.

For reference, 2 entries once more:

For Cc1c(CN(C)C(=O)c2ccnn2C)cnn1C the result was Mtb cholesterol medium: -12.78%; Mtb glucose medium: -39.95%.
For NC1(CNC(=O)c2cc3ccccc3[nH]2)CCCC1 the result was Mtb cholesterol medium: -25.46%; Mtb glucose medium: -12.9%.